Data taken from the supplement of paper PMC10849652.
The list shows a part of the results.

By UniProt entry, the sequences of proteins in these tests, tags left out. Where a name states a change or a piece, a line headed by the entry shows the natural chain unless it says otherwise.
UniProt P26583: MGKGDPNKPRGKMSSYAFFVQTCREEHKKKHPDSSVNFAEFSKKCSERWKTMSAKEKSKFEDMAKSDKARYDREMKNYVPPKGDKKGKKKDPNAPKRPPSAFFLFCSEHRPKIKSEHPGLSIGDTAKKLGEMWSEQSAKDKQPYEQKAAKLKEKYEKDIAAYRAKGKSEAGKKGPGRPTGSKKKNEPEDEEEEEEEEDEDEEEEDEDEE
UniProt O43719: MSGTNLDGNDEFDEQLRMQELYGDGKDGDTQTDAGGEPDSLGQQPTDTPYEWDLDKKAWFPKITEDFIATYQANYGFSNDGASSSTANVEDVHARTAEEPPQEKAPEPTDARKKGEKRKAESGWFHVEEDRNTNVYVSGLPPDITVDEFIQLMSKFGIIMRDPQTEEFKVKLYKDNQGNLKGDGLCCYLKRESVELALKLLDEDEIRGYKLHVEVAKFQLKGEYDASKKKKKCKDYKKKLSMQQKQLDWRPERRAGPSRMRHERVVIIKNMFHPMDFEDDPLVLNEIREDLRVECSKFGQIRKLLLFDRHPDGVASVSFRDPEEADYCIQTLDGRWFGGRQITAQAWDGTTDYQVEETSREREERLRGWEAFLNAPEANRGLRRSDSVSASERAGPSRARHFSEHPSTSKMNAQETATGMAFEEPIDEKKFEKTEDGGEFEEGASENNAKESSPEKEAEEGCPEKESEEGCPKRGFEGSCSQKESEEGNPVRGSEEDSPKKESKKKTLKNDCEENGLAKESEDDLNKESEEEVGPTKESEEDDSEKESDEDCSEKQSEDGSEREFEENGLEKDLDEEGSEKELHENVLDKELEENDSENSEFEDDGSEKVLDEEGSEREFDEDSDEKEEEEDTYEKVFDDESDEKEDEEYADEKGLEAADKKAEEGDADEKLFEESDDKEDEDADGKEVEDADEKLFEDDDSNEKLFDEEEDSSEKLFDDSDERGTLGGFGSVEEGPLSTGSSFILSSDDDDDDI
UniProt P51991: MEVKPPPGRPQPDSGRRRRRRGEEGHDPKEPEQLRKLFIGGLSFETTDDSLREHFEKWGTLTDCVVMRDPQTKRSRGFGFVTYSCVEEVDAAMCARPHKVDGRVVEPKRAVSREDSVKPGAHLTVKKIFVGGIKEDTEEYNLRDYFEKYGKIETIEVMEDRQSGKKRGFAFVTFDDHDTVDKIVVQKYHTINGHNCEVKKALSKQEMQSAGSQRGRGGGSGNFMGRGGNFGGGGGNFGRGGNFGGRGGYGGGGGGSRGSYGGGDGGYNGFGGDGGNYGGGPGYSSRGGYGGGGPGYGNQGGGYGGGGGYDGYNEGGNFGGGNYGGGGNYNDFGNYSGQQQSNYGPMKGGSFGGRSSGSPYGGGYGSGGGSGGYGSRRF
UniProt P17066, whole entry, looked up: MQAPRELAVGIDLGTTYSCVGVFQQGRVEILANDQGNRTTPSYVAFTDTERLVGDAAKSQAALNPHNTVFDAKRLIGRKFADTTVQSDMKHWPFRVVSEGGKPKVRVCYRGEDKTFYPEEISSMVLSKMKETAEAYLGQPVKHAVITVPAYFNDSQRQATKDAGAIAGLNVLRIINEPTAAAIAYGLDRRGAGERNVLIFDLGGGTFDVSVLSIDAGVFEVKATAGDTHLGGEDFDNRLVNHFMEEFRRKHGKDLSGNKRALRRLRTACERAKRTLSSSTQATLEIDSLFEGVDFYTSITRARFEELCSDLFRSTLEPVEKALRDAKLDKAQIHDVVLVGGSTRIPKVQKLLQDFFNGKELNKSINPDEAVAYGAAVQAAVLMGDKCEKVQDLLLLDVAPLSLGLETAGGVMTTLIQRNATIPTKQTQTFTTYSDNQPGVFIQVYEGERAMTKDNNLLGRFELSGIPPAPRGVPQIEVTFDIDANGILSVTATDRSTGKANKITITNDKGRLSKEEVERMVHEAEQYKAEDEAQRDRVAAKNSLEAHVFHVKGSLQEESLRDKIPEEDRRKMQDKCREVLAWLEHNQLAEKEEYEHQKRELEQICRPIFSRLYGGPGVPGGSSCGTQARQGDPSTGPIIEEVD
UniProt Q9NX55: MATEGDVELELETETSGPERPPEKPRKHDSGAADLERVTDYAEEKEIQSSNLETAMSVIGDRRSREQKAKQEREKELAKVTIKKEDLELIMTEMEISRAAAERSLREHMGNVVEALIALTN
UniProt P38646: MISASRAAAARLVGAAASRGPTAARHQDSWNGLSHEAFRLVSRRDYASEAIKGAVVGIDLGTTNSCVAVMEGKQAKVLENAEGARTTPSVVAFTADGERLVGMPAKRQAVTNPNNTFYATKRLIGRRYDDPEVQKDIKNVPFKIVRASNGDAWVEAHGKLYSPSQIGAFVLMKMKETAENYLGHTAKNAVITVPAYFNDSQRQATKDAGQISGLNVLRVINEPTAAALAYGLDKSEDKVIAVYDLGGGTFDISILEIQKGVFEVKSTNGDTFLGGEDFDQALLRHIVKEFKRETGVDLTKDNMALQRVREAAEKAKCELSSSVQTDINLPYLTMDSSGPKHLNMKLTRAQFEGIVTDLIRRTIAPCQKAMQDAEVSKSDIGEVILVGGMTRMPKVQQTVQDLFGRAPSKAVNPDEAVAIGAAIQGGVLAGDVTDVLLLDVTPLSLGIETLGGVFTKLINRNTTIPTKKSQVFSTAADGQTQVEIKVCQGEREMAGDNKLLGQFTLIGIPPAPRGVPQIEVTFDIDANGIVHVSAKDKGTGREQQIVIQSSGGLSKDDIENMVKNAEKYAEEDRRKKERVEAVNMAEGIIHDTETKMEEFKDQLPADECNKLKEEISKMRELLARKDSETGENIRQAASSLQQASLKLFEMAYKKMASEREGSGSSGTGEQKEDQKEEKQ
UniProt Q5T440: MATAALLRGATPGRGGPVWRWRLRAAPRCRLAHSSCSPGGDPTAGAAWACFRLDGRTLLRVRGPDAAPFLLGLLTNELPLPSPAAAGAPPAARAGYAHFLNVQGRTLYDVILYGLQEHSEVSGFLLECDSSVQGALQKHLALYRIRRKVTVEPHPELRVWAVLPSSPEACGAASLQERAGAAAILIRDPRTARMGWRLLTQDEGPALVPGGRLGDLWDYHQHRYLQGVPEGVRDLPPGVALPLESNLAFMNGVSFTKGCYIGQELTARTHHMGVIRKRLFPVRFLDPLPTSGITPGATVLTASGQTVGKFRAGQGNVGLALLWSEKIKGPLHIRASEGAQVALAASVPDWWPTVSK
UniProt P14735, whole entry, looked up: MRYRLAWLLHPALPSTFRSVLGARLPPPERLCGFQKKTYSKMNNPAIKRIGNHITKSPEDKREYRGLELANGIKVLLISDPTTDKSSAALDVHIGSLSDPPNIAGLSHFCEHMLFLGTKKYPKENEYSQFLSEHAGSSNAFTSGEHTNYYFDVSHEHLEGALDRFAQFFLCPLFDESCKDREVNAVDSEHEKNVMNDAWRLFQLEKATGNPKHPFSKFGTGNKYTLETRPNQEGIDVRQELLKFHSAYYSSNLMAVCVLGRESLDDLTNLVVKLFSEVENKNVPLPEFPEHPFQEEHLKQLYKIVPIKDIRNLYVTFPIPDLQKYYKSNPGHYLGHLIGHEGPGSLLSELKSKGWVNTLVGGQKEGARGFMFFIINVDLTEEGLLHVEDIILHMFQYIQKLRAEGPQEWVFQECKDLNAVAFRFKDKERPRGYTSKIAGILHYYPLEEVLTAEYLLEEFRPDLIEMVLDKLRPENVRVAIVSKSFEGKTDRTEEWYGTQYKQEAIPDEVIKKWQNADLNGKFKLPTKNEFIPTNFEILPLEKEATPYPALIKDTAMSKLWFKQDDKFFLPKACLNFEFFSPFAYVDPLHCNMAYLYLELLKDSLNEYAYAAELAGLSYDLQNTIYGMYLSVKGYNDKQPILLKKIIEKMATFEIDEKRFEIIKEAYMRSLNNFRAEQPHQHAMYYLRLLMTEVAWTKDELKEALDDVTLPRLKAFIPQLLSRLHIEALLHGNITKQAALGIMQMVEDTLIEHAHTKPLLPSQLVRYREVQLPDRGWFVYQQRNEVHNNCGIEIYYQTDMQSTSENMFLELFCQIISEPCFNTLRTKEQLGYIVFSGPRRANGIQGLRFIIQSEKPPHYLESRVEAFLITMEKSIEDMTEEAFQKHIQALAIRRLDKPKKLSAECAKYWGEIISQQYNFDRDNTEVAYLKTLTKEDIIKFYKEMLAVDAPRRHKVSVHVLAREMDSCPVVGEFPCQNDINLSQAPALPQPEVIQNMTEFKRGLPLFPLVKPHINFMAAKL
UniProt P54868: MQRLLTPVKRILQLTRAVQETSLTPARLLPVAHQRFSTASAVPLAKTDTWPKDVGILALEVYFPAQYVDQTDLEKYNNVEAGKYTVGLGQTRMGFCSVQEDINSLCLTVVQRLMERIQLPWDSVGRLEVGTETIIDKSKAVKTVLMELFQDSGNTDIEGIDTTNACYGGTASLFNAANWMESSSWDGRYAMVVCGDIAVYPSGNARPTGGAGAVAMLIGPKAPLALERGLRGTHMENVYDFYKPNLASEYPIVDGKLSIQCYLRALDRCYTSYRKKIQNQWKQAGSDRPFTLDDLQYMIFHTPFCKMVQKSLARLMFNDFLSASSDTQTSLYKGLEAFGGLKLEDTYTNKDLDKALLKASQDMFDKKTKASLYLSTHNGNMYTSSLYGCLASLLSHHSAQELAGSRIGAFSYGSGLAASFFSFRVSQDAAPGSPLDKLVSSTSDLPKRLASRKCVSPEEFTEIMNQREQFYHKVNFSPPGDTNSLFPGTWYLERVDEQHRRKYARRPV
UniProt O14964, whole entry, looked up: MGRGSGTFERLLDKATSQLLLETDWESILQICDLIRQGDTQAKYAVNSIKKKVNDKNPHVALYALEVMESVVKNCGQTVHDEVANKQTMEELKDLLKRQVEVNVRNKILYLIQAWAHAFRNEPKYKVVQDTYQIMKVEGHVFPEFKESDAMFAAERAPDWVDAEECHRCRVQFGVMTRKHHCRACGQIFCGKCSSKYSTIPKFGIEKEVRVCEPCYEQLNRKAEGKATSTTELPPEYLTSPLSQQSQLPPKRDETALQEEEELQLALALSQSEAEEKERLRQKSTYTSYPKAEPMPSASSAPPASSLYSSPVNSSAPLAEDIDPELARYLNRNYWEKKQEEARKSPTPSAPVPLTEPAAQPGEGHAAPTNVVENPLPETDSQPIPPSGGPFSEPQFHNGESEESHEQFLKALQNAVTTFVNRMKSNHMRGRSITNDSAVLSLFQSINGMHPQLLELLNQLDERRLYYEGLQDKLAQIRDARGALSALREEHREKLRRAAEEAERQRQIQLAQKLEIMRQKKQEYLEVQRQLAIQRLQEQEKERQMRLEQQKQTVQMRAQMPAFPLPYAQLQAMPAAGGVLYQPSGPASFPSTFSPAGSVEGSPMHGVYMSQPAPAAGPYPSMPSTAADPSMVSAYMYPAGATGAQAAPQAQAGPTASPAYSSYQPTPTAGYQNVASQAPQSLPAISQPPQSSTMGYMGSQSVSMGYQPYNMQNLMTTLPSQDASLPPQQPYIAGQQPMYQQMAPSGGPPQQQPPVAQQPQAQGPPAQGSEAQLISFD
UniProt P11021: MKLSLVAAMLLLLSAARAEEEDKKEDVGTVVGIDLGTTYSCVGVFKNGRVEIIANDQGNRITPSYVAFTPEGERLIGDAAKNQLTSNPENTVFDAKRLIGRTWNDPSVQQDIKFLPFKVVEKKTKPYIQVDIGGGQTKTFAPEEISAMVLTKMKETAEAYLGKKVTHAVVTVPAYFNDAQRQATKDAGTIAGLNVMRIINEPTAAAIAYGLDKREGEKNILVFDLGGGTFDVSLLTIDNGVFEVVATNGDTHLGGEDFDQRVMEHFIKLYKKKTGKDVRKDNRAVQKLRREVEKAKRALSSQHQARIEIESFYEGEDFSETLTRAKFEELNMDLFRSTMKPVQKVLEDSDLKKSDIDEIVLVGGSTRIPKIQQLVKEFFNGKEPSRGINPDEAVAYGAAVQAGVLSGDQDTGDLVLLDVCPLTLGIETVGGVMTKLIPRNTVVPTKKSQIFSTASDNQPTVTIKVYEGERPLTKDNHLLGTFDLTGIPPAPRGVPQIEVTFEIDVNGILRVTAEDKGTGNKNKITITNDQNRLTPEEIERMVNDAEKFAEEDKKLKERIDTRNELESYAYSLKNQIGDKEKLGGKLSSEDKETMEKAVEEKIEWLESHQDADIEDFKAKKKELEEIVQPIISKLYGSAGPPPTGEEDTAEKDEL
UniProt Q14103: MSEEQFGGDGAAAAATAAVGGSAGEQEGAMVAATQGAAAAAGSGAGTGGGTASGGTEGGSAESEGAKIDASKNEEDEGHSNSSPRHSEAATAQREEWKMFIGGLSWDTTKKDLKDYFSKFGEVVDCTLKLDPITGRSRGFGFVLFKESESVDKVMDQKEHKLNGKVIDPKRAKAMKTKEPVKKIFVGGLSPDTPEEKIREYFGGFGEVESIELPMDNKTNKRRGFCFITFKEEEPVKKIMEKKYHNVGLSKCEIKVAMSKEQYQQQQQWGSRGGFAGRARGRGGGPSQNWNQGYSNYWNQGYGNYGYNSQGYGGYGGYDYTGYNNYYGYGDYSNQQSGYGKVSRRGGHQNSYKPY

Experiments:
Assay in all cases: log2 fold change, soluble protein after heating vs DMSO (PISA); higher = thermal stabilisation; K562 cells, 10 uM, 30 min; active = over 0.2 and 3.5 SD of the protein, either way, in both replicates (recomputed)
[1] = compound: CS(=O)(=O)c1ccc(-c2cnc(N)c(C(=O)Nc3ccccc3)n2)cc1
Procedure, shortened: (§1)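 K562 cells at 2×10^6 cells/mL were exposed to 10 μM compound for 30 min, then aliquots were heated for 3 min across 48°C-58°C, pooled, and extracted in PBS containing 0.5% NP-40 at 4°C. The supernatant after 21,000xg for 90 min was taken as soluble protein and measured by TMTpro 16plex LC-MS/MS with channel sums equalised. Thermal stability is reported relative to control samples, with values from duplicates. Fold changes are given on a log2 scale.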

[2] = compound: C[C@@H](Oc1cc(-c2cnn(C3CCNCC3)c2)cnc1N)c1c(Cl)ccc(F)c1Cl [crizotinib]
Procedure, shortened: as §1

[3] = compound: C[C@@H]1COCCN1C2=NC(=NC(=C2)C3(CC3)S(=O)(=O)C)C4=C5C=CNC5=CC=C4
Procedure, shortened: as §1

[4] = compound: C[C@H](C1=CC=C(C=C1)C(=O)NC2=C3C=CNC3=NC=C2)N
Procedure, shortened: as §1

[5] = compound: C[C@H](Nc1ncnc2nc[nH]c12)c1cc2cccc(Cl)c2c(=O)n1-c1ccccc1 [duvelisib]
Procedure, shortened: as §1

[6] = compound: Cc1cc(Nc2cc(CN3CCOCC3)c3nc(C)c(Cc4ccc(Cl)cc4F)n3n2)n[nH]1 [gandotinib]
Procedure, shortened: as §1

[7] = compound: Cc1cc(Nc2cc(N3CCN(C)CC3)nc(Sc3ccc(NC(=O)C4CC4)cc3)n2)n[nH]1 [tozasertib]
Procedure, shortened: as §1

[8] = compound: Cc1cc(SCc2sc(-c3ccc(C(F)(F)F)cc3)nc2C)ccc1OCC(=O)O
Procedure, shortened: as §1

[9] = compound: Cc1ccc(-n2nc(C(C)(C)C)cc2NC(=O)Nc2ccc(OCCN3CCOCC3)c3ccccc23)cc1 [doramapimod]
Procedure, shortened: as §1

[10] = compound: Cc1ccc(C(=O)N(CCCN)[C@@H](c2nc3cc(Cl)ccc3c(=O)n2Cc2ccccc2)C(C)C)cc1 [ispinesib]
Procedure, shortened: as §1

[11] = compound: Cc1ccc(NC(=O)c2ccc(CN3CC[C@H](N(C)C)C3)c(C(F)(F)F)c2)cc1Nc1nccc(-c2cncnc2)n1 [bafetinib]
Procedure, shortened: as §1

[12] = compound: Cc1cccc(CC(=O)N2CCc3c2ccc(-c2cn(C)c4ncnc(N)c24)c3F)n1
Procedure, shortened: as §1

[13] = compound: Cc1cn(-c2cc(NC(=O)c3ccc(C)c(Nc4nccc(-c5cccnc5)n4)c3)cc(C(F)(F)F)c2)cn1 [nilotinib]
Procedure, shortened: as §1

[14] = compound: Cc1nc(Nc2n[nH]c3c2CN(C(=O)N[C@H](CN(C)C)c2ccccc2)C3(C)C)c2sccc2n1
Procedure, shortened: as §1

[15] = compound: Cc1nc(Nc2ncc(C(=O)Nc3c(C)cccc3Cl)s2)cc(N2CCN(CCO)CC2)n1 [dasatinib]
Procedure, shortened: as §1

[16] = compound: Cc1ncc(-c2ccnc(Nc3ccc(S(C)(=O)=O)cc3)n2)n1C(C)C
Procedure, shortened: as §1

[17] = compound: Cn1cc(-c2ccc3c(c2)CCN3C(=O)Cc2cccc(C(F)(F)F)c2)c2c(N)ncnc21
Procedure, shortened: as §1

[18] = compound: Cn1cc(-c2ccc3nnc(C(F)(F)c4ccc5ncccc5c4)n3n2)cn1
Procedure, shortened: as §1

[19] = compound: Cn1cncc1[C@@](N)(c1ccc(Cl)cc1)c1ccc2c(c1)c(-c1cccc(Cl)c1)cc(=O)n2C [tipifarnib]
Procedure, shortened: as §1

[20] = compound: FC(F)(F)c1ccc(/C=C/c2nc(COc3ccc(CCCCn4ccnn4)cc3)co2)cc1 [mubritinib]
Procedure, shortened: as §1

Measured: log2 fold change

HMGB2 (UniProt P26583)
inactive: [1] -0.045 | [2] -0.009 | [3] -0.087 | [4] -0.046 | [5] 0.023 | [6] 0.033 | [7] -0.03 | [8] 0.012 | [9] -0.001 | [10] 0.074 | [11] 0.011 | [12] -0.072 | [13] 0.07 | [14] -0.008 | [15] -0.009 | [16] 0.042 | [17] 0.047 | [18] -0.011 | [19] -0.061 | [20] -0.013

HTATSF1 (UniProt O43719)
inactive: [1] 0.006 | [2] 0.012 | [3] 0.01 | [4] -0.02 | [5] 0.075 | [6] -0.04 | [7] 0.125 | [8] 0.082 | [9] -0.041 | [10] -0.011 | [11] 0.024 | [12] -0.012 | [13] -0.109 | [14] -0.203 | [15] -0.078 | [16] -0.066 | [17] 0.008 | [18] 0.082 | [19] 0.101 | [20] 0.062

HNRNPA3 (UniProt P51991)
inactive: [1] -0.166 | [2] 0.066 | [3] -0.393 | [4] 0.324 | [5] -0.183 | [6] -0.002 | [7] 0.175 | [8] 0.055 | [9] 0.046 | [10] -0.07 | [11] 0.122 | [12] 0.009 | [13] -0.004 | [14] 0.064 | [15] 0.199 | [16] 0.21 | [17] -0.495 | [18] -0.233 | [19] 0.138 | [20] -0.262

HSP90AB1 (UniProt P08238)
inactive: [1] 0.029 | [2] -0.012 | [3] 0.014 | [4] -0.038 | [5] 0.011 | [6] -0.08 | [7] 0.017 | [8] 0.044 | [9] -0.048 | [10] 0.019 | [11] 0.005 | [12] 0.12 | [13] 0.109 | [14] 0.035 | [15] -0.063 | [16] 0.036 | [17] 0.03 | [18] 0.011 | [19] -0.084 | [20] 0.051

HSPA6 (UniProt P17066)
inactive: [1] 0.019 | [2] 0.021 | [3] -0.064 | [4] 0.003 | [5] -0.022 | [6] 0.001 | [7] -0.002 | [8] -0.047 | [9] -0.108 | [10] 0.011 | [11] -0.001 | [12] -0.037 | [13] 0.03 | [14] 0.001 | [15] 0.078 | [16] -0.02 | [17] -0.039 | [18] 0.009 | [19] 0.024 | [20] -0.018

HYPK (UniProt Q9NX55)
inactive: [1] 0.005 | [2] 0.01 | [3] 0.056 | [4] -0.013 | [5] 0.055 | [6] -0.028 | [7] -0.03 | [8] -0.031 | [9] 0.04 | [10] 0.041 | [11] 0.014 | [12] -0.009 | [13] 0.028 | [14] 0.017 | [15] 0.004 | [16] -0.01 | [17] 0.089 | [18] 0.023 | [19] -0.016 | [20] 0.001

4 successive records out of the list so far, for reference:
HTATSF1 (UniProt O43719)
inactive: [1] 0.006 | [2] 0.012 | [3] 0.01 | [4] -0.02 | [5] 0.075 | [6] -0.04 | [7] 0.125 | [8] 0.082 | [9] -0.041 | [10] -0.011 | [11] 0.024 | [12] -0.012 | [13] -0.109 | [14] -0.203 | [15] -0.078 | [16] -0.066 | [17] 0.008 | [18] 0.082 | [19] 0.101 | [20] 0.062

HNRNPA3 (UniProt P51991)
inactive: [1] -0.166 | [2] 0.066 | [3] -0.393 | [4] 0.324 | [5] -0.183 | [6] -0.002 | [7] 0.175 | [8] 0.055 | [9] 0.046 | [10] -0.07 | [11] 0.122 | [12] 0.009 | [13] -0.004 | [14] 0.064 | [15] 0.199 | [16] 0.21 | [17] -0.495 | [18] -0.233 | [19] 0.138 | [20] -0.262

HSP90AB1 (UniProt P08238)
inactive: [1] 0.029 | [2] -0.012 | [3] 0.014 | [4] -0.038 | [5] 0.011 | [6] -0.08 | [7] 0.017 | [8] 0.044 | [9] -0.048 | [10] 0.019 | [11] 0.005 | [12] 0.12 | [13] 0.109 | [14] 0.035 | [15] -0.063 | [16] 0.036 | [17] 0.03 | [18] 0.011 | [19] -0.084 | [20] 0.051

HSPA6 (UniProt P17066)
inactive: [1] 0.019 | [2] 0.021 | [3] -0.064 | [4] 0.003 | [5] -0.022 | [6] 0.001 | [7] -0.002 | [8] -0.047 | [9] -0.108 | [10] 0.011 | [11] -0.001 | [12] -0.037 | [13] 0.03 | [14] 0.001 | [15] 0.078 | [16] -0.02 | [17] -0.039 | [18] 0.009 | [19] 0.024 | [20] -0.018

(next part)

HSPA9 (UniProt P38646)
inactive: [1] -0.034 | [2] -0.01 | [3] 0.015 | [4] -0.022 | [5] -0.005 | [6] -0.008 | [7] -0.008 | [8] -0.04 | [9] 0.012 | [10] -0.063 | [11] -0.109 | [12] 0 | [13] -0.011 | [14] -0.008 | [15] 0.016 | [16] -0.013 | [17] 0.023 | [18] 0 | [19] 0.041 | [20] -0.049

IBA57 (UniProt Q5T440)
inactive: [1] 0.027 | [2] 0.09 | [3] 0.058 | [4] 0.043 | [5] -0.004 | [6] 0.011 | [7] -0.045 | [8] 0.043 | [9] -0.017 | [10] 0.056 | [11] 0.006 | [12] -0.024 | [13] -0.012 | [14] 0.001 | [15] -0.028 | [16] -0.026 | [17] 0.062 | [18] -0.112 | [19] 0.015 | [20] 0.012

HMCN1 (UniProt Q96RW7)
inactive: [1] -0.286 | [2] -0.023 | [3] -0.021 | [4] 0.144 | [5] -0.318 | [6] -0.353 | [7] -0.041 | [8] -0.249 | [9] 0.063 | [10] -0.001 | [11] -0.149 | [12] 0.223 | [13] -0.036 | [14] 0.061 | [15] 0.147 | [16] 0.388 | [17] 0.233 | [18] -0.259 | [19] -0.056 | [20] -0.538

IDE (UniProt P14735)
inactive: [1] -0.041 | [2] -0.036 | [3] 0.036 | [4] -0.014 | [5] 0.048 | [6] 0.046 | [7] 0.003 | [8] 0.043 | [9] -0.024 | [10] 0 | [11] 0.011 | [12] 0.014 | [13] -0.017 | [14] -0.042 | [15] -0.136 | [16] -0.034 | [17] 0.017 | [18] -0.045 | [19] -0.064 | [20] 0.037

HMGCS2 (UniProt P54868)
inactive: [1] 0.012

HGS (UniProt O14964)
inactive: [1] -0.012 | [2] 0.005 | [3] 0.038 | [4] -0.019 | [5] 0.005 | [6] -0.038 | [7] 0.049 | [8] -0.008 | [9] -0.033 | [10] -0.027 | [11] -0.063 | [12] 0.011 | [13] -0.01 | [14] -0.032 | [15] 0.034 | [16] -0.018 | [17] 0.026 | [18] -0.01 | [19] -0.015 | [20] 0.061

HSP90AA1 isoform 2 (UniProt P07900)
inactive: [1] 0.041 | [2] -0.028 | [3] 0.05 | [4] -0.064 | [5] 0.012 | [6] -0.089 | [7] 0.011 | [8] 0.023 | [9] -0.012 | [10] -0.006 | [11] -0.007 | [12] 0.022 | [13] 0.058 | [14] 0.017 | [15] -0.054 | [16] 0.011 | [17] 0.028 | [18] -0.021 | [19] -0.032 | [20] 0.044

IBTK (UniProt Q9P2D0)
inactive: [1] -0.148 | [2] -0.055 | [3] -0.362 | [4] 0.306 | [5] -0.075 | [6] 0.119 | [7] 0.048 | [8] 0.046 | [9] 0.225 | [10] -0.311 | [11] 0.165 | [12] 0.081 | [13] -0.007 | [14] 0.014 | [15] 0.052 | [16] -0.136 | [17] -0.079 | [18] -0.068 | [19] -0.025

HSPA5 (UniProt P11021)
inactive: [1] -0.005 | [2] 0.011 | [3] -0.007 | [4] -0.028 | [5] -0.024 | [6] -0.043 | [7] -0.003 | [8] -0.017 | [9] 0.001 | [10] 0.012 | [11] 0.001 | [12] -0.032 | [13] 0.028 | [14] 0.014 | [15] 0.024 | [16] -0.071 | [17] 0.02 | [18] 0.005 | [19] 0.046 | [20] -0.025

HNRNPD (UniProt Q14103)
inactive: [1] -0.097 | [2] 0.099 | [3] -0.218 | [4] 0.202 | [5] -0.119 | [6] 0.106 | [7] -0.011 | [8] -0.017 | [9] 0.052 | [10] -0.071 | [11] 0.104 | [12] -0.081 | [13] -0.013 | [14] 0.145 | [15] 0.17 | [16] 0.083 | [17] -0.117 | [18] -0.055 | [19] 0.078 | [20] -0.088

HNRNPD isoform 4 (UniProt Q14103)
inactive: [1] -0.046 | [2] -0.105 | [3] -0.39 | [4] 0.218 | [5] -0.112 | [6] 0.246 | [7] 0.01 | [8] -0.178 | [9] 0.052 | [10] 0.184 | [11] 0.073 | [12] -0.02 | [13] -0.058 | [14] 0.109 | [15] 0.372 | [16] -0.016 | [17] -0.111 | [18] -0.079 | [19] 0.07 | [20] -0.032
